Record: PubChem BioAssay AID1259405 (NCATS, 2018)

Aim: 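Silenced genes that increase secreted GFP made by CHO cells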 (primary screen)
Cell system: Chinese hamster CHO-K1 ovary cells with stable secreted eGFP expression
Reagent: single siRNA against mouse genes, 0.8 pmol siRNA per well (2 µl of 400 nM stock)
Duration: 3 days
Measured: 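Per-well intracellular GFP measured by laser scanning cytometry, plus viability from ATP luminescence, each relative to plate median of non-targeting control wells, in %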
Scale: GFP, % of control: higher = more GFP per well, higher productivity; viability (ATP), % of control: higher = more viable cells (more ATP)
Active means: 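Called active when intracellular GFP, relative to negative control, is at or above 120%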
Here is a random part of about 50,000 reagents tested. In the full data, about 4,000 (8%) are marked active. 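Mouse siRNA library applied to hamster cells; one well for each siRNA.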 The numbers tell different reagents against one gene apart.

target gene | reagent no. | GFP, % of control | viability (ATP), % of control | Call
Gamt | 1 | 84.4 | 122 | inactive
Gamt | 2 | 71.5 | 62.9 | inactive
Dram1 | 1 | 82.4 | 100 | inactive
Dram1 | 2 | 93.3 | 85.7 | inactive
Dram1 | 3 | 38.6 | 64.3 | inactive
Nr6a1 | 1 | 67 | 40.8 | inactive
Nr6a1 | 2 | 85.3 | 88.8 | inactive
Nr6a1 | 3 | 56.3 | 24.1 | inactive
Gcsh | 1 | 62.6 | 56.1 | inactive
Gcsh | 2 | 90 | 95.7 | inactive
Gcsh | 3 | 101 | 76.7 | inactive
Ifit1bl2 | 1 | 180 | 116 | active
Ifit1bl2 | 2 | 76.5 | 71.1 | inactive
Ifit1bl2 | 3 | 71.9 | 77.3 | inactive
Pou4f3 | 1 | 86.3 | 89 | inactive
Pou4f3 | 2 | 38.1 | 46.7 | inactive
Pou4f3 | 3 | 76.6 | 83.2 | inactive
Ddx21 | 1 | 98.4 | 55.8 | inactive
Ddx21 | 2 | 93.3 | 83.4 | inactive
Ddx21 | 3 | 108 | 91.9 | inactive
Ubl4a | 1 | 81 | 66.4 | inactive
Ubl4a | 2 | 44.7 | 46 | inactive
Ubl4a | 3 | 65 | 59 | inactive
Or13g1 | 1 | 58.6 | 64.2 | inactive
Or13g1 | 2 | 87.2 | 68.3 | inactive
Or13g1 | 3 | 125 | 65.8 | active
Ccar1 | 1 | 74.4 | 90.3 | inactive
Ccar1 | 2 | 48.7 | 69.5 | inactive
Rpl24 | 1 | 124 | 85.8 | active
Rpl24 | 2 | 35.5 | 24.1 | inactive
Rpl24 | 3 | 37.2 | 24.9 | inactive
Lin28a | 1 | 60 | 54.8 | inactive
Lin28a | 2 | 59 | 80.4 | inactive
Lin28a | 3 | 64 | 63.7 | inactive
Atpsckmt | 1 | 95.9 | 61.2 | inactive
Atpsckmt | 2 | 78.5 | 77.2 | inactive
Atpsckmt | 3 | 69.2 | 66.8 | inactive
Ccdc70 | 1 | 76.7 | 86.3 | inactive
Ccdc70 | 2 | 53.1 | 49.7 | inactive
Ccdc70 | 3 | 69.8 | 59.6 | inactive
Plce1 | 1 | 123 | 117 | active
Plce1 | 2 | 149 | 130 | active
Plce1 | 3 | 68.3 | 88.8 | inactive
Ptger1 | 1 | 148 | 78.2 | active
Ptger1 | 2 | 97 | 100 | inactive
Ptger1 | 3 | 70 | 65.8 | inactive
Kmo | 1 | 115 | 76.4 | inactive
Kmo | 2 | 86.5 | 61.4 | inactive
Kmo | 3 | 113 | 73 | inactive
Naa15 | 1 | 104 | 99.8 | inactive
Naa15 | 2 | 89.1 | 121 | inactive
Naa15 | 3 | 108 | 113 | inactive
Rhox1 | 1 | 142 | 73.1 | active
Rhox1 | 2 | 99.1 | 105 | inactive
Rhox1 | 3 | 34.4 | 43.2 | inactive
Or5d35 | 1 | 85 | 41 | inactive
Or5d35 | 2 | 57.9 | 80.9 | inactive
Or5d35 | 3 | 110 | 61.4 | inactive
BC051019 | 1 | 51.9 | 77.2 | inactive
BC051019 | 2 | 59.2 | 63.9 | inactive
BC051019 | 3 | 87.7 | 86.7 | inactive
Pip4k2a | 1 | 59.9 | 81.9 | inactive
Trpt1 | 1 | 67.2 | 48.4 | inactive
Trpt1 | 2 | 73 | 66.8 | inactive
Trpt1 | 3 | 60.2 | 72.7 | inactive
Tmem54 | 1 | 78.7 | 70.2 | inactive
Tmem54 | 2 | 105 | 87.8 | inactive
Tmem54 | 3 | 75.6 | 79.3 | inactive
Keg1 | 1 | 58.6 | 84.1 | inactive
Keg1 | 2 | 61.2 | 76 | inactive
Keg1 | 3 | 56.8 | 76.9 | inactive
Zfp563 | 1 | 62.2 | 59 | inactive
Zfp563 | 2 | 129 | 87.4 | active
4933430I17Rik | 1 | 27.7 | 59 | inactive
4933430I17Rik | 2 | 63.5 | 86.6 | inactive
4933430I17Rik | 3 | 107 | 126 | inactive
Xxylt1 | 1 | 88.9 | 63.6 | inactive
Xxylt1 | 2 | 151 | 96.7 | active
Xxylt1 | 3 | 53.3 | 56 | inactive
Lhx8 | 1 | 54 | 56.2 | inactive
Lhx8 | 2 | 71.1 | 72.5 | inactive
Lhx8 | 3 | 75.7 | 93.9 | inactive
Svopl | 1 | 70.1 | 63.2 | inactive
Svopl | 2 | 86.4 | 111 | inactive
Svopl | 3 | 59 | 94.6 | inactive
Aup1 | 1 | 41.9 | 67.3 | inactive
Aup1 | 2 | 73.9 | 84.6 | inactive
Aup1 | 3 | 111 | 38.5 | inactive
Phf1 | 1 | 43.9 | 56.1 | inactive
Phf1 | 2 | 85.5 | 94.4 | inactive
Phf1 | 3 | 76.8 | 71.9 | inactive
L1cam | 1 | 55.1 | 52.7 | inactive
L1cam | 2 | 96.2 | 94.1 | inactive
Tcf21 | 1 | 79.5 | 97.2 | inactive
Tcf21 | 2 | 78.9 | 80.2 | inactive
Tcf21 | 3 | 104 | 89.7 | inactive
Klf17 | 1 | 86 | 76.1 | inactive
Klf17 | 2 | 75.7 | 65.1 | inactive
Klf17 | 3 | 80.8 | 92.7 | inactive
Pcdhgc3 | 1 | 76.4 | 72.9 | inactive
Pcdhgc3 | 2 | 24.1 | 30.8 | inactive
Pcdhgc3 | 3 | 53.3 | 64.7 | inactive
Emx1 | 1 | 69.1 | 73.2 | inactive
Emx1 | 2 | 91.6 | 64.7 | inactive
Emx1 | 3 | 30.4 | 24.4 | inactive
Cxcl2 | 1 | 70.4 | 68.9 | inactive
Cxcl2 | 2 | 110 | 97.8 | inactive
Cxcl2 | 3 | 67.7 | 54.1 | inactive

Active calls, of those listed so far:
target gene | reagent no. | GFP, % of control | viability (ATP), % of control | Call
Ifit1bl2 | 1 | 180 | 116 | active
Or13g1 | 3 | 125 | 65.8 | active
Rpl24 | 1 | 124 | 85.8 | active
Plce1 | 1 | 123 | 117 | active
Plce1 | 2 | 149 | 130 | active
Ptger1 | 1 | 148 | 78.2 | active
Rhox1 | 1 | 142 | 73.1 | active
Zfp563 | 2 | 129 | 87.4 | active
Xxylt1 | 2 | 151 | 96.7 | active
